Test results as given in US6808877B2, “Ligands for FPR class receptors that induce a host immune response to a pathogen or inhibit HIV infection” (priority 2000, dated 2004).
Not every detail of the peptide structures is certain; ends, links or a residue may be inferred. Marks after values point to notes of the source that are not given here.

Tests used:
[1] = test system: monocytes; test: Ca2+ mobilization in monocytes (Fura-2); type: cell-based, human
Experimental: (§1) Calcium mobilization was measured by incubating 2×10^7/ml cells in loading medium (DMEM, 10% FBS) with 5 μM Fura-2 AM (Molecular Probes, Eugene, Oreg.) for 30 min at room temperature in the dark. The dye-loaded cells were washed 3 times with loading medium and resuspended in saline buffer [138 mM NaCl, 6 mM KCl, 1 mM CaCl2, 10 mM HEPES (pH 7.4), 5 mM Glucose, 0.1% BSA] at a concentration of 1×10^6/ml. The cells were then transferred into quartz cuvettes (2 ml) which were placed in a luminescence spectrometer (LS-50B, Perkin-Elmer, Beaconsfield, England). Stimulants at different concentrations were added in a volume of 20 μl to each cuvette at the indicated time points. The ratio of fluorescence at 340 and 380 nm wavelength was calculated using a FL WinLab program (Perkin-Elmer).
(§2) Calcium mobilization was assayed by incubating 2×10^7/ml of monocytes, neutrophils, FPRL1 or FPR transfectants in loading buffer containing 138 mM NaCl, 6 mM KCl, 1 mM CaCl2, 10 mM HEPES (pH 7.4), 5 mM glucose, 0.1% BSA with 5 μM Fura-2 (Sigma) at 37° C. for 30 min. The dye-loaded cells were washed and resuspended in fresh loading buffer. The cells were then transferred into quartz cuvettes (10^6 cells in 2 ml) which were placed in a luminescence spectrometer LS50 B (Perkin-Elmer Limited, Beaconsfield, England). Stimulants at different concentrations were added in a volume of 20 μl to the cuvettes at indicated time points. The ratio of fluorescence at 340 and 380 nm wavelength was calculated using the FL WinLab program (Perkin-Elmer).

[2] = test system: monocytes; test: Monocyte chemotaxis, 48-well micro-chemotaxis chamber; type: cell-based, human
[3] = molecular target: T1, FPR (Homo sapiens, UniProt P21462); test: 3H-fMLP binding competition on ETFR cells; conditions: 3H-fMLP 0.2 nM, 37° C., 30 min
T1 construct: H. Ali and R. Snyderman (Duke University); host or cells: RBL-2H3 rat basophilic leukemia cells
T1 sequence (P21462 1-350): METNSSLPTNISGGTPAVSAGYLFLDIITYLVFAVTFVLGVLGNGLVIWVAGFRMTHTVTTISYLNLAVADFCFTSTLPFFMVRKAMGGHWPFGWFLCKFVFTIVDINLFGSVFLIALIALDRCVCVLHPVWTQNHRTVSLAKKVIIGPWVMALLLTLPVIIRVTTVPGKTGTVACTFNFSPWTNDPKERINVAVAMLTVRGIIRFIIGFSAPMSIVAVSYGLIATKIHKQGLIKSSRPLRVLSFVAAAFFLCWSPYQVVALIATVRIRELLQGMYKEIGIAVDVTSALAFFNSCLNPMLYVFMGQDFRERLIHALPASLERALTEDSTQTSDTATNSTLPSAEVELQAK

[4] = test system: HIV-1JRFL; test: HIV-1JRFL infection of HOS cells expressing CD4/CCR5/FPRL1 (p24 ELISA); type: cell-based
[5] = test system: parental or mock transfected cells; test: Ca2+ mobilization in parental or mock transfected rat basophil cell line and HEK 293 cells; type: cell-based
[6] = test system: neutrophils; test: Ca2+ mobilization in neutrophils (Fura-2); type: cell-based, human
Experimental: as §1, §2

[7] = test system: neutrophils; test: Neutrophil chemotaxis, 48-well micro-chemotaxis chamber; type: cell-based, human
[8] = molecular target: T1, FPR; test: Ca2+ mobilization in ETFR cells; type: cell-based

## CSCC[C@H](NC(=O)[C@H](Cc1ccc(O)cc1)NC(=O)[C@H](CCCCN)NC(=O)[C@@H](N)Cc1c[nH]c2ccccc12)C(=O)N[C@H](C(=O)N[C@H](CCSC)C(N)=O)C(C)C [W peptide, Trp-Lys-Tyr-Met-Val-D-Met]
[1]
  Ca2+ mobilization: potently induced a dose-dependent, and pertussis toxin sensitive, calcium (Ca^2+) mobilization
  concentrations at which Ca2+ mobilization was detected: pM concentrations
  desensitization of W peptide-induced Ca2+ flux by chemokines MCP-1, RANTES, MCP-3, MIP-1α, IL-8, SDF-1α: not desensitized
[2]; W peptide lower wells 10^−8 M, upper wells 10^−8 M
  Number of migrated cells in 1 HPF (mean ± SE): 105 ± 6^b
[2]; W peptide lower wells 10^−8 M, upper wells 10^−10 M
  Number of migrated cells in 1 HPF (mean ± SE): 297 ± 32^b
[2]; W peptide lower wells 10^−8 M, upper wells Medium
  Number of migrated cells in 1 HPF (mean ± SE): 326 ± 21^b
[2]; W peptide lower wells 10^−9 M, upper wells 10^−8 M
  Number of migrated cells in 1 HPF (mean ± SE): 49 ± 4
[2]; W peptide lower wells 10^−9 M, upper wells 10^−9 M
  Number of migrated cells in 1 HPF (mean ± SE): 120 ± 15^b
[2]; W peptide lower wells 10^−9 M, upper wells 10^−10 M
  Number of migrated cells in 1 HPF (mean ± SE): 160 ± 13^b
[2]; W peptide lower wells 10^−9 M, upper wells Medium
  Number of migrated cells in 1 HPF (mean ± SE): 183 ± 11^b
[2]; W peptide lower wells 10^−10 M, upper wells 10^−8 M
  Number of migrated cells in 1 HPF (mean ± SE): 31 ± 3
[2]; W peptide lower wells 10^−10 M, upper wells 10^−9 M
  Number of migrated cells in 1 HPF (mean ± SE): 47 ± 3
[2]; W peptide lower wells 10^−10 M, upper wells 10^−10 M
  Number of migrated cells in 1 HPF (mean ± SE): 52 ± 6
[2]; W peptide lower wells 10^−10 M, upper wells Medium
  Number of migrated cells in 1 HPF (mean ± SE): 84 ± 5^b
[2]; W peptide lower wells Medium, upper wells 10^−8 M
  Number of migrated cells in 1 HPF (mean ± SE): 29 ± 2
[2]; W peptide lower wells Medium, upper wells 10^−9 M
  Number of migrated cells in 1 HPF (mean ± SE): 28 ± 3
[2]; W peptide lower wells Medium, upper wells 10^−10 M
  Number of migrated cells in 1 HPF (mean ± SE): 31 ± 3
[2]; human monocytes
  chemotactic activity / migration: migrated in a dose-dependent manner
[2]; monocytes
  concentrations at which chemotactic activity is evident: picomolar (pM) concentrations
[2]; monocytes, bell-shaped dose response
  peptide concentrations of maximal cell migration: low nanomolar (nM)
[3]
  competition with 3H-fMLP for binding: effectively competed
[4]; FPRL1 transfectants, 10^−5M at the initial step of infection
  HIV-1 infectivity (p24): significantly reduced HIV-1 infectivity
[4]; HOS CD4/CCR5/FPRL1 cells, p24 at 48 and 72 hours
  lowest concentration reducing HIV-1 infectivity: 10^−11 M
[4]; mock transfected cells, 10^−5M
  HIV-1 infectivity (p24): but not mock transfected cells
[5]
  Ca2+ mobilization: did not induce Ca^2+ mobilization
[6]
  Ca2+ mobilization: potently induced a dose-dependent, and pertussis toxin sensitive, calcium (Ca^2+) mobilization
  concentrations at which Ca2+ mobilization was detected: pM concentrations
  desensitization of W peptide-induced Ca2+ flux by chemokines MCP-1, RANTES, MCP-3, MIP-1α, IL-8, SDF-1α: not desensitized
[7]; human neutrophils
  chemotactic activity / migration: migrated in a dose-dependent manner
[7]; neutrophils
  concentrations at which chemotactic activity is evident: picomolar (pM) concentrations
[7]; neutrophils, bell-shaped dose response
  peptide concentrations of maximal cell migration: low nanomolar (nM)
[8]
  minimal effective dose to induce Ca2+ mobilization: 10^−11 M
